Test results as given in paper PMC3266917.
Results are given in words; binding and its absence hold for the method and conditions named. Binding seen in cells or lysates may run through a third protein. Some binding calls cover weakened binding; strength is not graded here. Tags and fused reporters may be left off the sequences shown.

Molecular target: T1, Flag-FBXO6 WT (human F-box protein 6) (human) (UniProt Q9NRD1)
T1 sequence: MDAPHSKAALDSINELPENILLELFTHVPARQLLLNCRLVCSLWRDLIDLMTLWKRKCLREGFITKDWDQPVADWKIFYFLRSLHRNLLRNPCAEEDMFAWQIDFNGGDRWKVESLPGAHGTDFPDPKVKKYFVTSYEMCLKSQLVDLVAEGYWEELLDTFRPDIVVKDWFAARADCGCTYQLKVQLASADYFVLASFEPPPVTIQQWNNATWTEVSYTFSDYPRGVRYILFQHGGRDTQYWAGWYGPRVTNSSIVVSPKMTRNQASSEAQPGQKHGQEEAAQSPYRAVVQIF
Test: co-IP; lysate of 293T cells transfected with Flag-FBXO6 WT or Null (50 mM Tris-HCl pH 7.5, 150 mM NaCl, 0.5% Nonidet P40); anti-FLAG M2 affinity resin overnight at 4°C; eluted with 3×Flag-peptide; immunoblot

B1: RPN1 (Ribophorin-1) (protein, UniProt P04843 24-607)
chain: ASSEAPPLINEDVKRTVDLSSHLAKVTAEVVLAHLGGGSTSRATSFLLALEPELEARLAHLGVQVKGEDEEENNLEVRETKIKGKSGRFFTVKLPVALDPGAKISVIVETVYTHVLHPYPTQITQSEKQFVVFEGNHYFYSPYPTKTQTMRVKLASRNVESYTKLGNPTRSEDLLDYGPFRDVPAYSQDTFKVHYENNSPFLTITSMTRVIEVSHWGNIAVEENVDLKHTGAVLKGPFSRYDYQRQPDSGISSIRSFKTILPAAAQDVYYRDEIGNVSTSHLLILDDSVEMEIRPRFPLFGGWKTHYIVGYNLPSYEYLYNLGDQYALKMRFVDHVFDEQVIDSLTVKIILPEGAKNIEIDSPYEISRAPDELHYTYLDTFGRPVIVAYKKNLVEQHIQDIVVHYTFNKVLMLQEPLLVVAAFYILFFTVIIYVRLDFSITKDPAAEARMKVACITEQVLTLVNKRIGLYRHFDETVNRYKQSRDISTLNSGKKSLETEHKALTSEIALLQSRLKTEGSDLCDRVSEMQKLDAQVKELVLKSAVEAERLVAGKLKKDTYIENEKLISGKRQELVTKIDHILDAL
For B1, the binding was “binds”.

B2: DDOST (Oligosaccharyl transferase 48 kDa subunit) (protein, UniProt P39656 43-456)
chain: SGPRTLVLLDNLNVRETHSLFFRSLKDRGFELTFKTADDPSLSLIKYGEFLYDNLIIFSPSVEDFGGNINVETISAFIDGGGSVLVAASSDIGDPLRELGSECGIEFDEEKTAVIDHHNYDISDLGQHTLIVADTENLLKAPTIVGKSSLNPILFRGVGMVADPDNPLVLDILTGSSTSYSFFPDKPITQYPHAVGKNTLLIAGLQARNNARVIFSGSLDFFSDSFFNSAVQKAAPGSQRYSQTGNYELAVALSRWVFKEEGVLRVGPVSHHRVGETAPPNAYTVTDLVEYSIVIQQLSNGKWVPFDGDDIQLEFVRIDPFVRTFLKKKGGKYSVQFKLPDVYGVFQFKVDYNRLGYTHLYSSTQVSVRPLQHTQYERFIPSAYPYYASAFSMMLGLFIFSIVFLHMKEKEKSD
With B2 the binding was “binds”.
